In patent US20030040605A1:
Results are given in words; binding and its absence hold for the method and conditions named. Some entries that bind do so weakly or less than the wild type.

Sequences of proteins named here, by UniProt entry; tags and fusion partners are left off. Residues count along the entry.
UniProt Q02161, residues 2-417: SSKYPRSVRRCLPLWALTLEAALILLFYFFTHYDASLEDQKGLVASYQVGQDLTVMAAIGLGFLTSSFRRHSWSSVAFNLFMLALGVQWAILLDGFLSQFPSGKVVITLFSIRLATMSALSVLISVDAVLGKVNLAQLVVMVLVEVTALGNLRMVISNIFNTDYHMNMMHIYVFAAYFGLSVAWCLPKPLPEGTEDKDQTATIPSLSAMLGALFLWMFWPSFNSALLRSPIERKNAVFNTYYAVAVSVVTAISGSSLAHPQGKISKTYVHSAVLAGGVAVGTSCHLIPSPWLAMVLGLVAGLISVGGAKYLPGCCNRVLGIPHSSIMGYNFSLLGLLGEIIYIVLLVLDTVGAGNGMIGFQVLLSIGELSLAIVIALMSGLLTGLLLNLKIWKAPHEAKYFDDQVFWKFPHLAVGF

B1: SH34 (Fab, V domains shown)
VH: EVQLLESGGGVVQPGRSLRLSCAASGFSFSSYGMHWVRQAPGKGLEWVAVISYDGTNKYFADSVKGRFTISRDNSKKTLYLQMTSLRPEDTAVYFCANLRGEVTRRASVPLDIWGQGTMVTVSS
VL: AELTQSPSSLSASVGDRVTITCRASQSISSYLNWYQQKPGKAPKLLIYAASGLQSGVPSRFSGSGSGTDFTLTISSLQPEDFATYYCQQSYSTPPYTFGQGTKLEIKR
B2: SH32 (Fab, V domains shown)
VH: EVQLLESGGGVVQPGRSLRLSCEASKFTLYNYGMHWVRQAPGKGLEWVAFIWFDGSNKYYEDSVKGRFTVSRDNSKNTLYLQMNSLRAEDTAVYYCARELSKKVALSRYYYYMDVWGQGTTVTVSS
VL: AELTQEPSLTVSPGGTVTLTCASSTGAVTSRYFPNWFQQKPGQAPRALIYGSNNKHSWTPARFSGSLLGGKAALTLSGVQPEDEAEYYCLLFYAGAWAFGGGTKLTVL
B3: SH46 (Fab, V domains shown)
VH: VQLLEESGGGVVQPGRSLRLSCAASGFTFSSYGMHWVRQAPGRGLEWVALIWYDGGNKEYADSVKGRFSISRDNSKNTLYLQVNSLRADDTAVYYCARDQRAAAGIFYYSRMDVWGQGTTVTVSS
VL: AELTQSPSSLSASVGDRVTITCRASQYISSYLNWYQQKPGKAPNLLIYAASSLQSGVPSRFSGSGSGTDFTLTISSLQPEDFATYYCQQTYSSPSTFGPGTKVDIKR
B4: SH48 (Fab, V domains shown)
VH: EVQLLESGGGVVQPGRSLRLSCAASGFSFSSYGMHWVRQAPGKGLEWVAVISYDGTNKYFADSVKGRFTISRDNSKKTLYLQMTSLRPEDTAVYFCANLRGEVTRRASVPLDIWGQGTMVTVSS
VL: AELTQSPSSLSASVGDRVTITCRASQYISSYLNWYQQKPGKAPNLLIYAASSLQSGVPSRFSGSGSGTDFTLTISSLQPEDFATYYCQQTYSSPSTFGPGTKVDIKR
B5: SH44 (Fab, V domains shown)
VH: EVQLLESGGGVAQPGRSLRLSCVASGFSLRSYGMHWVRQAPGKGLEWVADIWFDGSNKDYADSVKGRFTISRDNSKNTLYLQMNSLRAEDTAVYYCARDWRVRAFSSGWLSAFDIWGQGTMVTVSS
VL: AELTQSPSSLSASVGDRVIITCRASQTIPRFLNWYQQKPGKAPVLLIHSISSLQSGVPSRFSASGSGTEFTLTISSLQPEDFATYYCQQSYSNLSFGPGTTVDIRR
B6: SH24 (Fab, V domains shown)
VH: EVQLLESGGGVAQPGRSLRLSCVASGFSLRSYGMHWVRQAPGKGLEWVADIWFDGSNKDYADSVKGRFTISRDNSKNTLYLQMNSLRAEDTAVYYCARDWRVRAFSSGWLSAFDIWGQGTMVTVSS
VL: AELTQSPSSLSASVGDRVTITCRASQSISTYLNWYQQRPGKAPNLLIYAASTLQRGVPSRFTGSGSGTDFTLTISSLQPEDFATYYCQQSYTTLWTFGQGTKMEIRR

Target: human Rh(D) antigen (human) (UniProt Q02161)
Assay: indirect agglutination (anti-M13), Fab/phage

binding, binds:
B1
B2
B3
B4
B5
B6

Target: human Rh(D) antigen (human) (UniProt Q02161)
Assay: indirect agglutination (anti-M13), Fab/phage; footnote: weak

binding, binds:
B5
